This note sets out measurements from article PMC8396726.

Chains of the proteins cited; added tags and fusions are not shown.
UniProt Q8IJW2: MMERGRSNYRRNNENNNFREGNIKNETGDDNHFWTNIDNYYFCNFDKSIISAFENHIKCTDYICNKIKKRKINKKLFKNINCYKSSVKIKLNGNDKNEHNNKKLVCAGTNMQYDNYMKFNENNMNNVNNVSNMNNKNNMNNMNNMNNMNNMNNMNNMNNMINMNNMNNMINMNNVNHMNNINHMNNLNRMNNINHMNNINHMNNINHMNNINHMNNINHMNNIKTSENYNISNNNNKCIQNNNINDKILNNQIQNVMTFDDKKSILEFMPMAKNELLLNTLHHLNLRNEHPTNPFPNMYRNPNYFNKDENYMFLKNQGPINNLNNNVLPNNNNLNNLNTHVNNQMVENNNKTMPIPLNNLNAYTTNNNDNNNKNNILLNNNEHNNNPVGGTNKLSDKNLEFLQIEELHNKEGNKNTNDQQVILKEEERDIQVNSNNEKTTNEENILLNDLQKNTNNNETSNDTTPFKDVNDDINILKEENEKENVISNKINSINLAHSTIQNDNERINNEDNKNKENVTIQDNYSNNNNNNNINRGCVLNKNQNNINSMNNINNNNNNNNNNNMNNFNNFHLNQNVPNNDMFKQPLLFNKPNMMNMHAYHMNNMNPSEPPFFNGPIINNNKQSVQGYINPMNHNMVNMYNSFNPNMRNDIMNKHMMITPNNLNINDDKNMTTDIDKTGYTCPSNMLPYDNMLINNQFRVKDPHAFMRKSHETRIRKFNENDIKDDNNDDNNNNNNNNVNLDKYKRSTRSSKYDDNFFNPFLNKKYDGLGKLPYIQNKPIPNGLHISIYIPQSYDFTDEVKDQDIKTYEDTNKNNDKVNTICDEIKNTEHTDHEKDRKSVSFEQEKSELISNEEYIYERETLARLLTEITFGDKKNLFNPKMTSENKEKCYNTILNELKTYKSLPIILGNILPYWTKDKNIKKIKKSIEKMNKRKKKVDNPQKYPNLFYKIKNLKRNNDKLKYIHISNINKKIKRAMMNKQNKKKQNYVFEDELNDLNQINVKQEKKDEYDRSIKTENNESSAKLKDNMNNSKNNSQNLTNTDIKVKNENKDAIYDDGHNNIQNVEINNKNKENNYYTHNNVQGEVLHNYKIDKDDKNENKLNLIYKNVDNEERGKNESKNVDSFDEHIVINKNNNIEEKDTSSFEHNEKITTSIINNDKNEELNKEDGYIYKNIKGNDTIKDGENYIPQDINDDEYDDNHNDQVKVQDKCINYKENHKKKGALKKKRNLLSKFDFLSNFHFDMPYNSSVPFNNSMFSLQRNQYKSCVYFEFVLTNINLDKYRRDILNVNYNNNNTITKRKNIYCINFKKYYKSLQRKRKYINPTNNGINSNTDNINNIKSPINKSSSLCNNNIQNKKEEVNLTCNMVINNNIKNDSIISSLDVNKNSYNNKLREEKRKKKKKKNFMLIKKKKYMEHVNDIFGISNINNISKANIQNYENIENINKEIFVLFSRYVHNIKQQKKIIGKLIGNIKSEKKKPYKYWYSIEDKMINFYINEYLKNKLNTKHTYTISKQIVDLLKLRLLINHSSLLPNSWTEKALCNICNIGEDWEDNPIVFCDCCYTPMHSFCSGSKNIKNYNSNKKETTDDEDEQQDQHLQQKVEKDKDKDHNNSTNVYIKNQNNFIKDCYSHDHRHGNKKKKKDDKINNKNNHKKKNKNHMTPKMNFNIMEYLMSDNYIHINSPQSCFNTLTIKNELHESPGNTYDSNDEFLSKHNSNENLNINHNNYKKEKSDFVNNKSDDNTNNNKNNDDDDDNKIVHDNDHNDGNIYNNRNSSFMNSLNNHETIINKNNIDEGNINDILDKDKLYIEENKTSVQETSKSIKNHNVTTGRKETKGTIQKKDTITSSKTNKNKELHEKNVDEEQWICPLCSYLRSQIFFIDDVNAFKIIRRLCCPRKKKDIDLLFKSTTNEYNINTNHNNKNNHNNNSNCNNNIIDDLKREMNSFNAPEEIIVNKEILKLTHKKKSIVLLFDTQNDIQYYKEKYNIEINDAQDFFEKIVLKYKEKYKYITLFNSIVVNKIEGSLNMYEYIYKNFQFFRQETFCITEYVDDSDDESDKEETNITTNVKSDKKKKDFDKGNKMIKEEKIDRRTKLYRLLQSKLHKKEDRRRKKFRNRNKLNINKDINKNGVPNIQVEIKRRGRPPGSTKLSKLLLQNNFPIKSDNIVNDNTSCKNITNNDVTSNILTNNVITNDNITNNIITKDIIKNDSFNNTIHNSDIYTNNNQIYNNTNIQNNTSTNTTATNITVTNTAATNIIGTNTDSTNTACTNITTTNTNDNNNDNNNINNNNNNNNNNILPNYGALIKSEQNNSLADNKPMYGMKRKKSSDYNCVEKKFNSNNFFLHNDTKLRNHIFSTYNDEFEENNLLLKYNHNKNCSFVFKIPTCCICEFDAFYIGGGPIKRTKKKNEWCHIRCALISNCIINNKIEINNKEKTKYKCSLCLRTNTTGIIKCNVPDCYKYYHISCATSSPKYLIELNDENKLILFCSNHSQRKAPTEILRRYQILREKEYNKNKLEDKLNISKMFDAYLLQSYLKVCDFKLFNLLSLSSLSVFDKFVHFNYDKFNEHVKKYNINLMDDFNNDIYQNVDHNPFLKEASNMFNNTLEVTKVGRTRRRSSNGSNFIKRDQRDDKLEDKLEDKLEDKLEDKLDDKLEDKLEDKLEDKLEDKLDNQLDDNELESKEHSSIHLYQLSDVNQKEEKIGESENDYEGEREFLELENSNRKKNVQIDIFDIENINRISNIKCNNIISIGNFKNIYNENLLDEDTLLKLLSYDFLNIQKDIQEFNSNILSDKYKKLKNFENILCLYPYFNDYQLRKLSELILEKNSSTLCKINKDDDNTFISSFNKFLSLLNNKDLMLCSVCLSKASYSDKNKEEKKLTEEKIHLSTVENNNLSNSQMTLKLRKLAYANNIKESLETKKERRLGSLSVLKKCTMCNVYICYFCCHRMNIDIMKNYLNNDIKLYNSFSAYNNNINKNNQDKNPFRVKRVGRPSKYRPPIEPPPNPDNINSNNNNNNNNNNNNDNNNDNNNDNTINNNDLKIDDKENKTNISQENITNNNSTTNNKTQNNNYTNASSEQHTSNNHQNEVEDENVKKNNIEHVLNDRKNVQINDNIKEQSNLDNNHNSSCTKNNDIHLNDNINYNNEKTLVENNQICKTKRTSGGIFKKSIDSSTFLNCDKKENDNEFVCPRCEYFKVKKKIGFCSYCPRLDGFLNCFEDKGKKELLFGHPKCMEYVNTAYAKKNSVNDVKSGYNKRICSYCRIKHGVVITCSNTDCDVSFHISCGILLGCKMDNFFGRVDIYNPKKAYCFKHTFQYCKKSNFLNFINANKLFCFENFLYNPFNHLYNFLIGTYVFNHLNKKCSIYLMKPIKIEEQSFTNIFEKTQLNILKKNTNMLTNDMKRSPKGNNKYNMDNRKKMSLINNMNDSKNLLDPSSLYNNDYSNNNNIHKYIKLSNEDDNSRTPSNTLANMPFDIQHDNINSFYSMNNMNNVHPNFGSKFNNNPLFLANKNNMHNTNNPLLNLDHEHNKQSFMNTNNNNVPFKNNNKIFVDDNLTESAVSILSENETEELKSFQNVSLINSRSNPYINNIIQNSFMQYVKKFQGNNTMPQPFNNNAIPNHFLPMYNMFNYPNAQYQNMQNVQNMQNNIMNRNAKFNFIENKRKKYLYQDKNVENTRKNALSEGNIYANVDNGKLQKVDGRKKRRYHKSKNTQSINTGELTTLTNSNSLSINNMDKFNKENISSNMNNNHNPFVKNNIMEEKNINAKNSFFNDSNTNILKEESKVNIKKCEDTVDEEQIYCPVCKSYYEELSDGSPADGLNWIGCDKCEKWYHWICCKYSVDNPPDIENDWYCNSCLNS
UniProt Q8IM62: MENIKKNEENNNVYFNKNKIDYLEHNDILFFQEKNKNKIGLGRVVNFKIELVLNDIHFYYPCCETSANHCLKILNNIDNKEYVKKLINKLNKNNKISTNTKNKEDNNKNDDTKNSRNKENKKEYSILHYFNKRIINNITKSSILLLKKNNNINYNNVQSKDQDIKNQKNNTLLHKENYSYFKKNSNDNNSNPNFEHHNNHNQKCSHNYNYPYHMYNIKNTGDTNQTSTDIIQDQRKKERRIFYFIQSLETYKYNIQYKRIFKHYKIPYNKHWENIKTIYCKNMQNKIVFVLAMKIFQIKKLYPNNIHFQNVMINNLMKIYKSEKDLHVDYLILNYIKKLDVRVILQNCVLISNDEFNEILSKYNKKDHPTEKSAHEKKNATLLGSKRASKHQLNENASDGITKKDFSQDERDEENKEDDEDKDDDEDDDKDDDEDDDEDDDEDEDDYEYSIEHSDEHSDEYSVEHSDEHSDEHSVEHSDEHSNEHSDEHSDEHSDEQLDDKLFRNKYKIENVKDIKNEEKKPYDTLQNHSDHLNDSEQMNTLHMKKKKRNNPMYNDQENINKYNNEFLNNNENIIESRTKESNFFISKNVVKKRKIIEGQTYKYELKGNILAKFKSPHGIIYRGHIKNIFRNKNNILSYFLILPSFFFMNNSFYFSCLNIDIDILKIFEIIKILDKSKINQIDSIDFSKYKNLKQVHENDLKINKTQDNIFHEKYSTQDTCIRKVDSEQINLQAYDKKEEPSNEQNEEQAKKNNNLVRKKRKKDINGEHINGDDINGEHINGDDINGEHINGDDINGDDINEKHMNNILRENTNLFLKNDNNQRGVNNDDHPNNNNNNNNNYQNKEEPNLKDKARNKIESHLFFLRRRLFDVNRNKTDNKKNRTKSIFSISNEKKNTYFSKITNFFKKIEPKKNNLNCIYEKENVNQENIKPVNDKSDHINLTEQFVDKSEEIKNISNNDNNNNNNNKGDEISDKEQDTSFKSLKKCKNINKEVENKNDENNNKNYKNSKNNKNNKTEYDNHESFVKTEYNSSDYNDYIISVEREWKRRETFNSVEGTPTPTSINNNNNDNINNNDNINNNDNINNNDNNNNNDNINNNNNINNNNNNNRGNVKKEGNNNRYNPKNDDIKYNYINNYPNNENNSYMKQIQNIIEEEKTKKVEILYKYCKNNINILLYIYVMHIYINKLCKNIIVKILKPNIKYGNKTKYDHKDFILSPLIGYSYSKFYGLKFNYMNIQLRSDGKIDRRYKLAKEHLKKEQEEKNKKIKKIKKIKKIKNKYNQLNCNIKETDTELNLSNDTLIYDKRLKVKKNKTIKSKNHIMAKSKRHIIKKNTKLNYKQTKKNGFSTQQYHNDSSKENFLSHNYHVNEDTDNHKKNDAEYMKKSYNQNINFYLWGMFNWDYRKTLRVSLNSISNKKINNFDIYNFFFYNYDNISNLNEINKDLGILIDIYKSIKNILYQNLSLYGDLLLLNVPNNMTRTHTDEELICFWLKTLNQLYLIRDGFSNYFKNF

These are yes or no findings as the source states them, for the method shown. Binding seen in cells or lysates may run through a third protein. These calls come from enrichment with a bait or labelling near it, and not all partners need be listed. For some assays here: No binding means not detected with the bait.

Assay [1] deals with PfPHD1::Myc (P. falciparum 3D7) (UniProt Q8IJW2). The assay is described as follows: affinity purification with mass spectrometry; single-step pulldown with Myc-trap beads from trophozoite nuclear extracts of PfPHD1::Myc parasites; LC-MS/MS; SAINT probability >94%, 1% FDR; WT 3D7 as control.
In assay [2] the target is PfGCN5::GFP (P. falciparum) (UniProt Q8IB67). The assay is described as follows: affinity purification with mass spectrometry; single-step IP with GFP-trap beads from PfGCN5::GFP parasites at the ring stage; LC-MS/MS; two replicates; SAINT probability >94%, 1% FDR.
The target in assay [3] is PfGCN5::PTP (P. falciparum 3D7) (UniProt Q8IB67). The assay is described as follows: affinity purification with mass spectrometry; tandem affinity purification (IgG agarose, release with TEV protease, anti-protein C beads, elution with EGTA/EDTA) from nuclear extracts of 10^9 synchronized trophozoites of the PfGCN5::PTP line; 150 mM KCl, 20 mM Tris-HCl pH 7.7, 3 mM MgCl2, 0.1% Tween 20, 4°C; LC-MS/MS; SAINT probability >94%, FDR <1%; three replicates; WT 3D7 as control.

For assay [4], the target named is PfGCN5::GFP (P. falciparum) (UniProt Q8IB67). The assay is described as follows: affinity purification with mass spectrometry; IP with GFP-Trap from trophozoite nuclear extracts of the PfGCN5::GFP, GCN5-ΔBrD::GFP and PHD1-ΔPHD::GFP lines; LC-MS/MS; SAINT probability >94%, FDR <1%.

With AP2-I (from UniProt Q8IJW6 1-1597), the binding result in assay [1] is given as “binds”.
Consider “PF3D7_1107800 (from UniProt Q8IIS4 1-1828)”, for which the binding result in assay [2] is recorded as “binds”.
On to “PF3D7_1239200 (from UniProt Q8I531 1-2577)”, for which the binding entry in assay [1] was “binds”.
Regarding “PF3D7_1364400 (from UniProt A0A5K1K8L4 1-3265)”, the binding entry in assay [1] is “binds”; in assay [3] it was “binds”; in assay [4] it was “binds”; in assay [2], “no binding (only at the ring stage)”.
On to “PF3D7_1402800 (from UniProt Q8IM62 1-1511)”, for which the binding entry in assay [1], in assay [3], in assay [4] and in assay [2] was “binds” in each case.
Take PfADA2 (from UniProt Q8IJP9): the binding entry in assay [1], in assay [3], in assay [4] and in assay [2] was “binds” in each case.
For PfAP2-LT (from UniProt Q8IAM1 1-2577), the binding entry in assay [1], in assay [3], in assay [4] and in assay [2] was “binds” in each case.
On to “PfGCN5 (from UniProt Q8IB67 1-1465) (enzyme)”, for which the binding result in assay [1] is recorded as “binds”.

B1: AP2-EXP (protein, UniProt Q8IKH2 1-813)
chain: MEDNNMNNEQKFNPNMLGMENNVSQEPAAETVVVEPKKKVGRPRGASSNNKVIKKEEKVSTSSSGYPGVSWNKRMCAWLAFFYDGASRRSRTFHPKHFNMDKEKARLAAVEFMKTVENNGRKKSGKGKGGRSKSKQLNDEHFNALHNSDLGNSMNGMNAHNNLHMQLMSMNPAFYMQSLNRNFNMSANERNNMFNSLNNHSGLSGPLKNMQDHNELYMQNQVFNNMHLLNNSNSSLNNNRNNNSNNNNNSSNSHNNSSNNLHYLNELIFNSNLFHGNNMGYHEGNVNTGVSDLLNLDDNVGLHNKDVENLMNVLFRQNYNMNMNISNIDKHYLQGSNILMNGPQGNNNNMNNSNSNNNNNSGSNNNSNNNNNNNNTNNNNNSGSNNNSNNNNNMNNNKNNNNNNNNSNSGNSNSSQNQHMYLSSHNNDIFENNNNNSNSGNNDSNNNNQSNISNFYDYNFDLYRGNVSPNIMDMVHRMNNNMKDGKNLDSLNDDIGNDLNFRLHENSAWINQLRQSHNNLCNNINNNHCDLCHTTSPDHSLKGQMELSKRKKTTSNINNRKNDLLEDSVNSFDLNMPCSCSSHLRNQKNHFCVYYNQSNSSSQNENYKNYLNWNPNSNNNLINNSIDKNDTPLDNSNGNSGRNLGDSNLLCISQNNNGTSSQSTNPKHLSQTIDMNQKQSSHTSQYSNNPNLQDIQNQFSYQNQPNINMDMHSQLNLIKQNCNYSPKCINNNKKKSTTGTSKDSTRKLLSSHSLSMPLEQQHQSSKKNNLSSSFIENNLCTKLNSIINFEWINNDLKMNLNGNKSNSYDNSES
Consider B1, for which the binding result in assay [2] was “binds”.

B2: Pf14-3-3I (protein, UniProt C0H4V6 1-262)
chain: MATSEELKQLRCDCTYRSKLAEQAERYDEMADAMRTLVEQCVNNDKDELTVEERNLLSVAYKNAVGARRASWRIISSVEQKEMSKANVHNKNVAATYRKKVEEELNNICQDILNLLTKKLIPNTSESESKVFYYKMKGDYYRYISEFSCDEGKKEASNCAQEAYQKATDIAENELPSTHPIRLGLALNYSVFFYEILNQPHQACEMAKRAFDDAITEFDNVSEDSYKDSTLIMQLLRDNLTLWTSDLQGDQTEEKSKDEGLE
As to B2, the binding entry in assay [1] and in assay [2] was “binds” in each case.
